Measurements: patent publication US20040166148A1, “Transdermal therapeutic delivery systems with a butenolide” (priority 2003, published 2004)
Some of these results come from one statement about several compounds together. At least one compound was matched to its structure with a doubt left.

Assay: Storage stability of drug solutions: N-oxide content by ion pair reversed phase HPLC
Assay type: physicochemical
Conditions: solutions stored for 7 days at 40° C.; conventional antioxidants (Comparative Examples 1 to 5)

| SMILES | N-oxide content of the active |
| --- | --- |
| O=C1O[C@H]([C@@H](O)CO)C(O)=C1O [vitamin C] | up to 41 % peak area |
| Cc1cc(C(C)(C)C)c(O)c(C(C)(C)C)c1 [butylhydroxytoluene] | up to 41 % peak area |
